# From PMC7819943, “Rice protein-binding microarrays: a tool to detect cis-acting elements near promoter regions in rice”
# Protein sequences, listed by entry. Tags and fused reporters are not part of them.
# UniProt Q0JBA9, entry or part of it: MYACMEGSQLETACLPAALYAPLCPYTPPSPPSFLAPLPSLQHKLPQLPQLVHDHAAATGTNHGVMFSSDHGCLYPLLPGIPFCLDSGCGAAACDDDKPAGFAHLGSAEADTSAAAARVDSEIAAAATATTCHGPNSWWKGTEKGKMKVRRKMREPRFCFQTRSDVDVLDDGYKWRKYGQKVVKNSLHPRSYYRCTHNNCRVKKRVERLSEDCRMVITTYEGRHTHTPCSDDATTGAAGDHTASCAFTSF
# This is one part of the list.
# Target: OsWRKY34 (Oryza sativa, UniProt Q0JBA9 1-250)
# Assay: protein-binding microarray (RPBM); PBS, 2% BSA, 51.3 ng/ul salmon testes DNA, 50 uM zinc acetate, 200 nM TF, 25 C, 1 h; high values mean tight binding
# Details: protein: recombinant; tags: N-terminal polyhistidine and DsRed monomer fusion (pET32a); label: CyDye5-dUTP incorporated in the synthesized complementary strand; 3' TTTTT single-stranded linker to array surface; dsDNA, one strand shown
# Summary of the method: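 Binding signal is reported as fluorescence intensity per feature (arbitrary units) from an Axon 4000B scanner. Incubation used 200 nM of each Ni–NTA-purified, N-terminally polyhistidine- and DsRed-fused transcription factor from E. coli BL21-CodonPlus on a double-stranded custom Agilent array for 1 h at 25 °C, with 50 µM zinc acetate in the buffer, followed by washing.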
row,Sequence,binding signal
1,CGCACTCTACCTAGACCACCACCACCACCAGTCCACCACACGGAGTCACCTAGTGCAG,11500 fluorescence intensity (a.u.)
2,TCAGTTTCTCTTTTTTCTTGTTCGAGTCAATCGGGCGGATCGGAGTCACCTAGTGCAG,8960 fluorescence intensity (a.u.)
3,TCCTCGTCTACATTGCGGTCTCCGGCGGCGGCGGCGGGGTCGGAGTCACCTAGTGCAG,10800 fluorescence intensity (a.u.)
4,GGGAAAGTGGTTGGCGGATATTCTTGTTTTCTTTTTTTGTCGGAGTCACCTAGTGCAG,12500 fluorescence intensity (a.u.)
5,GCGCGCGCTTGTAGCCATCGGAGGAGGAGGAGGGAGGGGACGGAGTCACCTAGTGCAG,8230 fluorescence intensity (a.u.)
6,TTTGATTCTCTACCTTTTGTTTTCTGTTTATATTTCAATTCGGAGTCACCTAGTGCAG,12400 fluorescence intensity (a.u.)
7,CCTTGGTTTCCGTGTCATGTTTGACCATTCGTCTTATTTGCGGAGTCACCTAGTGCAG,12400 fluorescence intensity (a.u.)
8,TCTTATATTATACATCTCACTGTCTCAGTGTCTTGCCCTTCGGAGTCACCTAGTGCAG,8370 fluorescence intensity (a.u.)
9,GTGGTTGTGTGCAAGCTGCCAGCGCTTTTTGTTTTCCCTCCGGAGTCACCTAGTGCAG,9430 fluorescence intensity (a.u.)
10,AATTTGTCTGCTTCCAGAGTTCCAGTTGCCTTGCCGCATGCGGAGTCACCTAGTGCAG,11500 fluorescence intensity (a.u.)
11,GACTCCCGTCTCCTCGCCCGGCCGGCGGCCGCCCGTCGCCCGGAGTCACCTAGTGCAG,9560 fluorescence intensity (a.u.)
12,GCTTACGTTATAGGTATTTTTCCACGGTATGAGACTAAAACGGAGTCACCTAGTGCAG,9520 fluorescence intensity (a.u.)
13,ATAAGATGTTTTGATTGTTATAAGTTTGACCAAGTTTATACGGAGTCACCTAGTGCAG,8780 fluorescence intensity (a.u.)
14,TGCGTCTCTGTCTCTCTCCTGGCGTTGGCTTGGCTCTAACCGGAGTCACCTAGTGCAG,9360 fluorescence intensity (a.u.)
15,AAGATGATTTCCGTCCGTTTCCCGTTTTCACCCCTAGTTGCGGAGTCACCTAGTGCAG,9520 fluorescence intensity (a.u.)
16,CCGCCTCGCCAACCTCCCCACGCCGGCCACCGCCGCACGGCGGAGTCACCTAGTGCAG,8640 fluorescence intensity (a.u.)
17,AATTAATTGTGTATTATAAGGTTTGGTCCCATTTTCTTTTCGGAGTCACCTAGTGCAG,8110 fluorescence intensity (a.u.)
18,AGTTTAAAACCCACCCGTCCCGTGCCCGTGTCCGTGTCTCCGGAGTCACCTAGTGCAG,12700 fluorescence intensity (a.u.)
19,GTCTCGCTCAGCCAGCCGCTACGCCCTGCCCGTCGCCTGCCGGAGTCACCTAGTGCAG,10100 fluorescence intensity (a.u.)
20,TTTCGCCATACCTGTTACCATGTTAACATATCTTACCTTCCGGAGTCACCTAGTGCAG,11800 fluorescence intensity (a.u.)
21,GGCAGTGACGCAAGAAAGGGGTCGGGGACGGGTCAACAAGCGGAGTCACCTAGTGCAG,10800 fluorescence intensity (a.u.)

# Retrieved one by one from the list above:
row,Sequence,binding signal
16,CCGCCTCGCCAACCTCCCCACGCCGGCCACCGCCGCACGGCGGAGTCACCTAGTGCAG,8640 fluorescence intensity (a.u.)
3,TCCTCGTCTACATTGCGGTCTCCGGCGGCGGCGGCGGGGTCGGAGTCACCTAGTGCAG,10800 fluorescence intensity (a.u.)
11,GACTCCCGTCTCCTCGCCCGGCCGGCGGCCGCCCGTCGCCCGGAGTCACCTAGTGCAG,9560 fluorescence intensity (a.u.)

# (listing goes on)

row,Sequence,binding signal
1,AACTGGCTATGCGGCTTTCCTTCGCCCTTACCCTGTCTCTCGGAGTCACCTAGTGCAG,8900 fluorescence intensity (a.u.)
2,TCATTACCCATCACCAACTGCTACTTCATTTTACACTTGCCGGAGTCACCTAGTGCAG,12700 fluorescence intensity (a.u.)
3,GCTTGCACTGTTTGACCATTCGTCTTATTTAAAAAATTTGCGGAGTCACCTAGTGCAG,10900 fluorescence intensity (a.u.)
4,TTTGAGACTATTTGAAGCCAGCAGCATCACTCCATGTTCTCGGAGTCACCTAGTGCAG,10100 fluorescence intensity (a.u.)
5,TGACAACCAATCACGTCCTTGCGACCTTGCCTCTGCTTCACGGAGTCACCTAGTGCAG,9290 fluorescence intensity (a.u.)
6,GTTTGACTATTTTATGCCTTGTAGCTTGAGCTACAGTTCACGGAGTCACCTAGTGCAG,10100 fluorescence intensity (a.u.)
7,AAATTTGGTCGAACCTAAATAAGTTTGACTAAAACAGTTACGGAGTCACCTAGTGCAG,8610 fluorescence intensity (a.u.)
8,CTATACCGGTTAACTAGCCAGCGCCATTTTCTACTTCTTACGGAGTCACCTAGTGCAG,9540 fluorescence intensity (a.u.)
9,GGTGGCTGCATATCTCTTTCATCTCTTCTCTCCTCCACCTCGGAGTCACCTAGTGCAG,8980 fluorescence intensity (a.u.)
10,TCCTGCTTATCGGATCCCACCAGACCCAATTTGAATTTTCCGGAGTCACCTAGTGCAG,11000 fluorescence intensity (a.u.)
11,ATGGACTCGTTTATTCCAAATTTTAGTTAGTTTTAAATTTCGGAGTCACCTAGTGCAG,9720 fluorescence intensity (a.u.)
12,AGTGGGATGCACCTCTTCGTTTTTTTTTTTAAATTCCGATCGGAGTCACCTAGTGCAG,10500 fluorescence intensity (a.u.)
13,CATTGATACGGCCGGTTTATGCTCTGCCTTTTTCTTTATTCGGAGTCACCTAGTGCAG,9650 fluorescence intensity (a.u.)
14,CCTGCCAACCCCATCCCAGCCCTACACGTGTCCATCCTCACGGAGTCACCTAGTGCAG,10700 fluorescence intensity (a.u.)
15,TTCTGTCATCACTGTGCTTCCCCAGCCGGATTTGTTTTTGCGGAGTCACCTAGTGCAG,9020 fluorescence intensity (a.u.)
16,ATTTGTACATTGTGCACATATATATTCTTCCTTCACCTATCGGAGTCACCTAGTGCAG,10500 fluorescence intensity (a.u.)
17,TTTTCTGGTTAAGGGGTATGAATTAGATTCCGCATAGTTTCGGAGTCACCTAGTGCAG,8420 fluorescence intensity (a.u.)
18,AGCATTATACGAGCTTGGTATCCCCATGGTTTGAAATTTTCGGAGTCACCTAGTGCAG,9780 fluorescence intensity (a.u.)
19,TGGTTTTGTTTGATCCTCCGGACTATTAAATAGTCTTTCACGGAGTCACCTAGTGCAG,8450 fluorescence intensity (a.u.)
20,ATCCCAAATCACCCGTCACCGGCGGCCACGACCGCACCCGCGGAGTCACCTAGTGCAG,9280 fluorescence intensity (a.u.)
21,AGTTCTTCAAGCTTTGCATATATATAAACACACATTCTGACGGAGTCACCTAGTGCAG,9240 fluorescence intensity (a.u.)
